Article PMC12533803, “Rotenoids from the Roots of Vicia faba L. (Fabaceae): Structural Characterization, Cytotoxic Effects, and Molecular Docking” (Chemistry & Biodiversity, 2025)

How the values were obtained:
[1] = test system: MCF‐7 (breast adenocarcinoma) cell line; experiment: MTT cytotoxicity assay, MCF-7; type: cell-based; details: Homo sapiens, MCF7, 72 h incubation
Description: (§1) ATCC CCL 247), 501Mel (melanoma; RRID: CVCL_4633), and MCF‐7 (breast adenocarcinoma; ATCC HTB 22), along with non‐tumor cells line NIH/3T3 (mouse embryonic fibroblast; ATCC CRL 1658). […] Cells were kept at 37°C in a humidified atmosphere containing 5% CO2. […] At the end of the incubation period, the culture medium was replaced with a fresh medium containing MTT solution (0.5 mg/mL) and further incubated for 3 h. The MTT solution was then removed, and the formazan crystals formed were dissolved in 150 µL of DMSO. Absorbance for each well was measured at 570 nm, and then the values thereof were normalized in the percentage of viable cells based on that of the negative control.

[2] = test system: HCT‐116 (human colorectal carcinoma) cell line; experiment: MTT cytotoxicity assay, HCT-116; type: cell-based; details: 72 h incubation
Description: as §1

## COc1cccc2c1C(=O)c1c(O)c3c(c(O)c1C2=O)C[C@@](O)(C(=O)CO)C[C@@H]3O[C@H]1C[C@H](N)[C@H](O)[C@H](C)O1 [Doxorubicin, reference compound]
[1]
  IC50: 30 nM
[2]
  IC50: 50 nM
